From US20250026837A1 (CANCURE, published 2025)
No constants are given. Whether binding was seen depends on the method and setting. Some binding calls cover weakened binding; strength is not graded here. Where a sequence is shown, tags or fusion partners need not be part of it.

Target: T1, MICB (antigen in solution in the BLI assay) (UniProt Q29980)
T1 sequence (looked up): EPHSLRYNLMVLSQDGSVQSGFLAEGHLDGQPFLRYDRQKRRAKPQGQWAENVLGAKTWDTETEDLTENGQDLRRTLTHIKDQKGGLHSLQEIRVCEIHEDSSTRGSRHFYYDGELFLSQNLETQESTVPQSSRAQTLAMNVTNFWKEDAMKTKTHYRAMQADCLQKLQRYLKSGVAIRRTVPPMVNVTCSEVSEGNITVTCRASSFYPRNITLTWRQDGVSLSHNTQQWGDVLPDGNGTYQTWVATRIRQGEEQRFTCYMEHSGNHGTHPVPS
Experiment: Bio-layer interferometry (Octet Red96), antibody captured on biosensors, MICB dilution series in solution

B1: antibody J (Ab-J; chimeric B10G5, parental HC / parental LC with human IgG1 Fc region) (antibody, V domains shown)
VH: EVQLEESGPGLVKPSQSLSLTCTVTGYSITSDYAWNWIRQFPGNKLEWMGYISYSGSTNYNPSLKSRISITRDTSKNQFFLQLNSVITEDTATYYCARGGTYFDYWGQGTTLTVSS
VL: DIVLTQTTSYLSVSLGGRVTIACKASAHINNWLAWYQQKPGNAPRLLISDATSLETGVPSRFSGSGSGKDYTLSITSLQTEDVATYYCQHYWSTPWTFGGGTKLEIK
notes: also called chimeric antibody B10G5
binding: binds

B2: antibody K (Ab-K; humanized HC2 / humanized LC3, human IgG1) (antibody, V domains shown)
VH: EVQLQESGPGLVKPSQTLSLTCTVSGYSITSDYAWNWIRQPPGKGLEWIGYISYSGSTNYNPSLKSRVTISRDTSKNQFSLKLSSVTAADTAVYYCARGGTYFDYWGQGTLVTVSS
VL: DVVMTQSPSTLSASVGDRVTITCRASAHINNWLAWYQQKPGKAPKLLISDATSLESGVPSRFSGSGSGKEYTLTISSLQPDDFATYYCQHYWSTPWTFGQGTKVEIKR
notes: also called K (HC2/LC3)
binding: binds
